The assay is described as follows: qHTS Assay for Lipid Storage Modulators in Drosophila S3 Cells.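 On cell number change: cells counted by Cell Tracker Red CMTPX staining in the red channel.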 To be noted: BODIPY lipid droplet fluorescence, 18-24 h; for cell number change: measured here: cell count max response, cells fed with added oleic acid. The essentials: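 Drosophila S3 cells loaded with oleic acid (400 uM, as added) and compounds at several concentrations; lipid droplets imaged by 488-nm laser-scanning cytometry, 500–530 nm intensity and object ratio to cell channel. Percent activity normalized to 20 uM Triacsin C.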

The mark [1] stands for this setting: measured here: lipid fluorescence (Fed channel) AC50, cells fed with added oleic acid.
The mark [2] stands for this setting: measured here: cell number channel AC50, cells fed with added oleic acid.

The other results are listed elsewhere or left out. These are further read-outs of the screen, such as a control signal, another cell line or another target. No call is given for them. Compounds called inactive in the main read-out are mostly missing here. Words in brackets tell the shape of the fitted curve; partial curves, single points and poor fits give uncertain potencies.

As to `COCCn1c(SCC(=O)N2CCCC2=O)nc2sc(C)c(C)c2c1=O`, the cell number change is -22%.

As to `CC(C(=O)N1CCN(C=O)CC1)N1C(=O)c2ccccc2C1=O` (stereo unspecified), the cell number change is -6.78%. Also, under setting [1], the AC50 was 23.1 µM [rising, single point].

With `Cc1ccccc1-c1nc(-c2ccc(Br)o2)no1`, the cell number change is 63.8%. The AC50 under setting [2] was 16.4 µM [rising, partial curve]. The AC50 under setting [1] is 23.1 µM [rising, partial curve].

As for `O=C(CCc1ccccc1)NCCSc1ccccc1`, the cell number change came out at 12.2%. The AC50 under setting [2] is 0.103 µM [falling, full curve, poor fit]. For the same compound, the AC50 under setting [1] is 0.092 µM [falling, full curve, poor fit].

On to `CN1C(=O)CSC1=Nc1ccc(Br)cc1`, for which the cell number change came to 10.9%. Moreover, under setting [1], the AC50 was 0.0651 µM [rising, full curve, poor fit].

`O=C(Nc1ccc(N2CCCC2)c(Cl)c1)c1cccc(-c2cc3ccccc3oc2=O)c1`: the cell number change was determined as 4.81%. Moreover, the AC50 under setting [1] was 18.4 µM [rising, partial curve].

For the compound `Cc1ccc(NC(=O)c2cc([N+](=O)[O-])ccc2N2CCOCC2)cc1C`, the cell number change is -11.9%. The AC50 under setting [1] is 3.26 µM [rising, single point].

`COc1ccc(N2CCOCC2)c(NC(=O)c2ccc3c(c2)OCO3)c1`: the AC50 was 2.06 µM [falling, partial curve, poor fit] under setting [2] and 5.62 µM [rising, single point] under setting [1].

As for `CC(=O)Nc1ccc(S(=O)(=O)Nc2cccc(-c3ccc4nncn4n3)c2)cc1`, the AC50 under setting [1] is 0.82 µM [falling, full curve].

As to `COc1ccc(CC(=O)Oc2ccc(F)c(F)c2)cc1S(=O)(=O)N1CCOCC1`, the cell number change is -26.9%. The AC50 under setting [2] is 4.11 µM [falling, partial curve].

Take `CCc1nnc(NS(=O)(=O)c2ccc(NC(=O)c3ccc(Cl)cc3)cc2)s1`: the cell number change worked out at 39.3%. The AC50 under setting [1] is 29.1 µM [rising, single point].

As for `CC1CCc2nc(NC(=O)C3CC3)sc2C1` (stereo unspecified), the cell number change worked out at 44.7%. Also, the AC50 under setting [2] is 6.51 µM [rising, partial curve]. Also, the AC50 under setting [1] was 1.3 µM [rising, partial curve].

On to `O=C1C(Cc2ccccc2)NC(=S)N1c1ccccc1` (stereo unspecified), for which the cell number change was 4.87%. Besides, under setting [2], the AC50 was 0.058 µM [rising, full curve, poor fit].

For the compound `COc1ccc(S(=O)(=O)NC(CC(=O)NCc2ccc3c(c2)OCO3)c2ccco2)cc1` (stereo unspecified), the cell number change was -7.24%. In addition, under setting [1], the AC50 was 4.61 µM [falling, full curve, poor fit].

In the case of `COc1ccc(-c2noc(Cc3ccc(Cl)cc3)n2)cc1OC`, the cell number change is -11.3%.

For `CC1(C)N=c2ccc([N+](=O)[O-])c(N)c2=[N+]1[O-]`, the cell number change is -27%.

Consider `O=C(NCCc1ccccc1)C(c1ccccc1)N(C(=O)c1csnn1)C1CC1` (stereo unspecified), for which the cell number change came out at 18.7%. Also, the AC50 under setting [1] was 29.1 µM [rising, single point].

For `Clc1ccc(CSC2=NCCCN2)cc1Cl`, the cell number change turned out to be 79.1%. Also, under setting [2], the AC50 is 25.9 µM [rising, partial curve]. Further, under setting [1], the AC50 is 0.651 µM [rising, single point].

`C=CCn1c(SCc2ccc(Cl)cc2)nc2c1c(=O)[nH]c(=O)n2C`: the cell number change worked out at 42.9%. Besides, the AC50 under setting [2] is 4.11 µM [rising, full curve]. Also, under setting [1], the AC50 was 2.59 µM [rising, full curve, poor fit].

As for `COc1ccc(-c2cn3cc(Br)cnc3n2)cc1`, the cell number change was -11.7%. Also, the AC50 under setting [1] is 0.731 µM [falling, single point].

Take `N/C(=N\OC(=O)CCCc1ccccc1)c1ccccn1`: the cell number change is -54.7%. Also, the AC50 under setting [2] is 29.1 µM [falling, single point]. Besides, the AC50 under setting [1] was 0.00517 µM [rising, full curve, poor fit].

Take `O=C(Nc1ccccc1N1CCN(c2ccc(F)cc2)CC1)c1ccccc1`: the cell number change is -15.1%. Also, the half-maximal activity concentration (AC50) under setting [1] is 23.1 µM [rising, single point].

On to `Cc1ccc(C)n1-c1ccc(-c2ccn[nH]2)cc1`, for which the cell number change was determined as 8.54%.

Turning to `Cn1cccc1C(=O)NC(=O)COC(=O)CNS(=O)(=O)c1ccc(Br)cc1`, the cell number change was -10%.

Regarding `CC(=O)Nc1ccc(C2=NNC(=Nc3cccc(S(=O)(=O)N(C)C)c3)SC2)cc1`, the cell number change was -12.1%. Besides, the concentration at half-maximal activity (AC50) under setting [2] is 3.66 µM [falling, single point]. Further, under setting [1], the AC50 was 3.66 µM [falling, single point].

On to `COc1ccc(/C(O)=C2/C(=O)C(=O)N(CCCN(C)C)C2c2cccnc2)cc1` (stereo unspecified), for which the cell number change was -7.42%. The AC50 under setting [1] was 0.00517 µM [falling, full curve, poor fit].

As to `COc1cccc(CNC(=O)C2CCCN(S(=O)(=O)c3cnc[nH]3)C2)c1` (stereo unspecified), the cell number change is 8.29%. Also, the AC50 under setting [1] is 0.517 µM [rising, single point].

In the case of `Cc1ccc(CN(C(=O)c2csnn2)C(C(=O)NC2CCCC2)c2ccco2)cc1` (stereo unspecified), the cell number change was determined as 12%. Besides, the AC50 under setting [1] was 0.58 µM [rising, single point].

For `Fc1ccccc1-c1ccc(/C=N/Nc2nc3ccccc3[nH]2)o1`, the cell number change amounted to 117%. The AC50 under setting [2] was 18.4 µM [rising, single point]. Under setting [1], the AC50 was 29.1 µM [falling, single point].

On to `COc1ccc(CCNC(=O)c2cc(-c3cccs3)on2)cc1OC`, for which the cell number change was -12%. For the same compound, the AC50 under setting [1] was 14.6 µM [rising, single point].

Take `O=C(COC(=O)c1ccc(S(=O)(=O)N2CCCC2)cc1)NCc1ccccc1`: the cell number change was determined as 3.21%.

Turning to `COc1ccc(Cn2c(=O)[nH]c3cc(C(=O)NCCCN4CCCCC4)ccc3c2=O)cc1`, the cell number change turned out to be 12.5%. Also, the AC50 under setting [1] is 0.13 µM [rising, single point].

For `CC(=O)Nc1ccc(NC(=O)CN2CCN(c3ccccn3)CC2)cc1`, the cell number change amounted to 22.7%. In addition, the AC50 under setting [1] was 7.31 µM [rising, partial curve].

On to `COc1cccc(NC(=O)C2CCC(CNS(=O)(=O)c3ccc4c(c3)CC(C)N4C(C)=O)CC2)c1` (stereo unspecified), for which the cell number change is -4.94%. Moreover, under setting [1], the AC50 is 29.1 µM [falling, single point].

Take `COc1ccc(S(=O)(=O)N2CCOCC2)cc1C(=O)Nc1nc2ccccc2s1`: the cell number change is -69.4%. The AC50 under setting [2] is 20.6 µM [falling, partial curve]. For the same compound, the AC50 under setting [1] is 29.1 µM [falling, single point].

For `Cc1cc(C)n2nc(CNS(=O)(=O)c3c(F)c(F)c(F)c(F)c3F)nc2n1`, the AC50 runs as follows: under setting [2], 2.06 µM [falling, partial curve]; under setting [1], 4.11 µM [falling, partial curve].

Turning to `O=C(Cc1ccccc1)c1c[nH]c(C(=O)O)c1`, the cell number change was -38.6%. Under setting [2], the AC50 was 0.184 µM [falling, partial curve, poor fit].
